Source: the supplement of paper PMC10849652
Some of the results follow.

Chains of the proteins cited; added tags and fusions are not shown. Lines headed by an entry give the natural chain unless they say otherwise; changes in a name come on top.
UniProt Q9NS87: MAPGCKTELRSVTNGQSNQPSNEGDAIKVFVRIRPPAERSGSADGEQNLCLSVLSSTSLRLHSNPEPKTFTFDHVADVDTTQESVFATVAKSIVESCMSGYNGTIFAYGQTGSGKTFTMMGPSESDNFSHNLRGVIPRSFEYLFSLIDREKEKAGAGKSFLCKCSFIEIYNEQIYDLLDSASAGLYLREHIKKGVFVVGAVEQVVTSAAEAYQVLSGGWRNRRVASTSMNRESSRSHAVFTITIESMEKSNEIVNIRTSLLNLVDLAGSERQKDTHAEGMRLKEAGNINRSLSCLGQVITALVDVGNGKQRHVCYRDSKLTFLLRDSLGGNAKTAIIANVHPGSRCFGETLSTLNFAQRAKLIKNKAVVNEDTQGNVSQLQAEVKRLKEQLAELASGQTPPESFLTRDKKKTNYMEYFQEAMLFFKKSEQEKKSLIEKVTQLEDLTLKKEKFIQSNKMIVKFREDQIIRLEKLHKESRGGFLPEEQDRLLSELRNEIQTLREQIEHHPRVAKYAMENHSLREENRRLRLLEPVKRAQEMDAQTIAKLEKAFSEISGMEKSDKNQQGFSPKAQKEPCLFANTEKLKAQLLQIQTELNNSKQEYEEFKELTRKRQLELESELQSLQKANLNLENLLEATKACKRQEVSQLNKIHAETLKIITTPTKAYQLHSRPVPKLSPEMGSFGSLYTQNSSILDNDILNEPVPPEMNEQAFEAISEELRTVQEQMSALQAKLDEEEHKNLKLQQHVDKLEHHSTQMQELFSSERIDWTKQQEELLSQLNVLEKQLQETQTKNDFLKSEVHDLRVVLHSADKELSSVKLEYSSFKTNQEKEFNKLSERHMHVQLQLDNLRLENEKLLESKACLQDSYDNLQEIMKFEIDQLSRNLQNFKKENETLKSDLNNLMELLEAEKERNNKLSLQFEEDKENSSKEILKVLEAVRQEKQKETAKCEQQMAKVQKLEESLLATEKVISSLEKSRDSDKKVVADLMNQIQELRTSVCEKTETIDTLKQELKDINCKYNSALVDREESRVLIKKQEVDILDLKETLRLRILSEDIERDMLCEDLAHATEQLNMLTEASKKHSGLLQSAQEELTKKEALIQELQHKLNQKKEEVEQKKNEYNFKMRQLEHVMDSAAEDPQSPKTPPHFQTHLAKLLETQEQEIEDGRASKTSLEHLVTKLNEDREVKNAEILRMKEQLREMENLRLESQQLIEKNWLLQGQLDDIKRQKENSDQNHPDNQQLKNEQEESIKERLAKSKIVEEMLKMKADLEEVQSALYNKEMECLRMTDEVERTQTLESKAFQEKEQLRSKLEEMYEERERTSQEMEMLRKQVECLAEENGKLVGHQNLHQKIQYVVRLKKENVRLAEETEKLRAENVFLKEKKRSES
UniProt Q8TBB5: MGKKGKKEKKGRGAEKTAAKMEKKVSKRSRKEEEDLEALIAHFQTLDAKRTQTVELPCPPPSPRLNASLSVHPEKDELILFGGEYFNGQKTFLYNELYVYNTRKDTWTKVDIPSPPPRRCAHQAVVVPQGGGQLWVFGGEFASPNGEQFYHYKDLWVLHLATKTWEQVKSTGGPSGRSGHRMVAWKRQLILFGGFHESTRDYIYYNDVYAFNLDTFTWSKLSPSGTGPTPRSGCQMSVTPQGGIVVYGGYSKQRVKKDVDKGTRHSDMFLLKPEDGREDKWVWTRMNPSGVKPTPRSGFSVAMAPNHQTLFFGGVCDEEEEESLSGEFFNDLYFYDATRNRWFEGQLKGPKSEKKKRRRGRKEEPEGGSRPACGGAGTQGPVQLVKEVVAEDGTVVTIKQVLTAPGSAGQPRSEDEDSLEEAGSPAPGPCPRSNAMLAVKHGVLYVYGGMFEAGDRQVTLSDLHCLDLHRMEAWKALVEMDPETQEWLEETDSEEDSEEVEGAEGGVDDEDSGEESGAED
UniProt Q9H9P8: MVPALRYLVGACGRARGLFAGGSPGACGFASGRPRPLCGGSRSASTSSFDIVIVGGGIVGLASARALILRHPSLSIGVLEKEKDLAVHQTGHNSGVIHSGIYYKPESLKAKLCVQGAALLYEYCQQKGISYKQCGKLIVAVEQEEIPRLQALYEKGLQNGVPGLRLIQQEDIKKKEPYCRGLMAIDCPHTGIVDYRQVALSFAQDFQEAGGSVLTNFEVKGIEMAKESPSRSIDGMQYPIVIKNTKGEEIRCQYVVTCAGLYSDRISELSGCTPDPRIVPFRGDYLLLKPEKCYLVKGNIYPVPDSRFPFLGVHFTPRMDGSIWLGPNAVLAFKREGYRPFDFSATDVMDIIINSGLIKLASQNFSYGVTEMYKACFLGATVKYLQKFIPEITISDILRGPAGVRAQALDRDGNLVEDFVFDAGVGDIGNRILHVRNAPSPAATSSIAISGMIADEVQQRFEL
UniProt P11279: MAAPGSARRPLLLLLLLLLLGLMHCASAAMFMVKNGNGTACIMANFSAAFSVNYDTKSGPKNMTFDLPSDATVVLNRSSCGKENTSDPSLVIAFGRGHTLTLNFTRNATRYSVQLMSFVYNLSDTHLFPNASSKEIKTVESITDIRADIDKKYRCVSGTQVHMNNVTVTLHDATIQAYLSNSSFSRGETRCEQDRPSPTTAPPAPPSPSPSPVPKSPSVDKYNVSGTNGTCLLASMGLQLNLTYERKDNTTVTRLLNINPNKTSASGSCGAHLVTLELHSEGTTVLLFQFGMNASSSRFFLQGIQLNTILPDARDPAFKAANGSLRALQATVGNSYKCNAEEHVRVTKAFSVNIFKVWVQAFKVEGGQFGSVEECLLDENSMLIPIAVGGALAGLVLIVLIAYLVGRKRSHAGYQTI
UniProt Q9Y664: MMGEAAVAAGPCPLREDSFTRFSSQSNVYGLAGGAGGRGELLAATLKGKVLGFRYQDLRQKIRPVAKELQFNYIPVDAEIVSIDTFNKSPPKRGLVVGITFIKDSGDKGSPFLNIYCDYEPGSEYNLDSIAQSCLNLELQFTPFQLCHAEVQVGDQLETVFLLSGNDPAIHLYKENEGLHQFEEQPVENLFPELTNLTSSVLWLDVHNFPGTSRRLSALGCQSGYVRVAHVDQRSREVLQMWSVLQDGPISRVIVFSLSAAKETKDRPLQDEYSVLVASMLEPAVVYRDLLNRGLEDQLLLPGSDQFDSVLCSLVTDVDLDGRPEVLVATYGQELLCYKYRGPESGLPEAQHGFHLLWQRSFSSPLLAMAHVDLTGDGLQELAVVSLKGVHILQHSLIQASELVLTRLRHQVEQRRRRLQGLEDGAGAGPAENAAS
UniProt Q7Z4S6: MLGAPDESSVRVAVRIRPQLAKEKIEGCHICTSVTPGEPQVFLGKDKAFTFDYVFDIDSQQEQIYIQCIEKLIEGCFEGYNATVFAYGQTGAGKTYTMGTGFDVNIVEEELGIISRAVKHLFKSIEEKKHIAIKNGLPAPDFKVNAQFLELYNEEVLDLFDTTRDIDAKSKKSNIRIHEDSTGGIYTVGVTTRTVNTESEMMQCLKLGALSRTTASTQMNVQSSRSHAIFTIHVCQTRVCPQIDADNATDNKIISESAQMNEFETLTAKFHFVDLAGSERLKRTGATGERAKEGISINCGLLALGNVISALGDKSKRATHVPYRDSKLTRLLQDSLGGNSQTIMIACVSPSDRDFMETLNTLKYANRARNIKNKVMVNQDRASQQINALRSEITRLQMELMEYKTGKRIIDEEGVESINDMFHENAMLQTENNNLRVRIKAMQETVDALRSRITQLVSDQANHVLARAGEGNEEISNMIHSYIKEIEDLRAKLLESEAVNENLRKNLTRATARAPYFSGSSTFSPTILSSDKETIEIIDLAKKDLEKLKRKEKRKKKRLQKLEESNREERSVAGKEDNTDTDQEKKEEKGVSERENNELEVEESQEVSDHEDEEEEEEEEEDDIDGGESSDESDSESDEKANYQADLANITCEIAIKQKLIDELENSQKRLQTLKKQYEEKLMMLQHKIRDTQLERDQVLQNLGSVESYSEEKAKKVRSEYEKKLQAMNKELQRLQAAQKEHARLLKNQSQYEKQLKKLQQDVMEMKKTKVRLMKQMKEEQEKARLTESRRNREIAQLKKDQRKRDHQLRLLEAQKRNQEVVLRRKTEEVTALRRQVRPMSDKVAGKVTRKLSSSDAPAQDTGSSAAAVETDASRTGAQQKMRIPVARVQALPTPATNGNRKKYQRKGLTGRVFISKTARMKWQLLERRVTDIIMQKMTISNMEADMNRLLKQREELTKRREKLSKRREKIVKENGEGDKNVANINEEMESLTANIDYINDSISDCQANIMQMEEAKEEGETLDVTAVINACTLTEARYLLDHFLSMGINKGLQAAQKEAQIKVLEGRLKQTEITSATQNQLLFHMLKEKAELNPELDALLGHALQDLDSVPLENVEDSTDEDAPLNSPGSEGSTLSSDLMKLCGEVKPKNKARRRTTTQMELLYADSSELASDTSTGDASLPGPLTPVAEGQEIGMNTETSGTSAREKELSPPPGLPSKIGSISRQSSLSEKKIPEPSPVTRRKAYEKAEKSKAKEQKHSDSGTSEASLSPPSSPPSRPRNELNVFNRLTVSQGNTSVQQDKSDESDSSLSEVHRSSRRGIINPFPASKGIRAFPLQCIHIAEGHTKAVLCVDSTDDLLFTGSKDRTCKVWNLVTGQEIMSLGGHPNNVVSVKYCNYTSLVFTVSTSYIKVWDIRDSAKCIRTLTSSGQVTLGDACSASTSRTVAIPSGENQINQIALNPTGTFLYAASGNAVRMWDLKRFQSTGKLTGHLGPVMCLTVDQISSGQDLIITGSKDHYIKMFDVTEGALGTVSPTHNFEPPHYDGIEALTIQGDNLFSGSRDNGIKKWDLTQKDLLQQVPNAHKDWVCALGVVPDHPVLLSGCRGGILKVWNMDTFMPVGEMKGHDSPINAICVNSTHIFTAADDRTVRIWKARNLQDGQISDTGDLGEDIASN
UniProt Q1ED39: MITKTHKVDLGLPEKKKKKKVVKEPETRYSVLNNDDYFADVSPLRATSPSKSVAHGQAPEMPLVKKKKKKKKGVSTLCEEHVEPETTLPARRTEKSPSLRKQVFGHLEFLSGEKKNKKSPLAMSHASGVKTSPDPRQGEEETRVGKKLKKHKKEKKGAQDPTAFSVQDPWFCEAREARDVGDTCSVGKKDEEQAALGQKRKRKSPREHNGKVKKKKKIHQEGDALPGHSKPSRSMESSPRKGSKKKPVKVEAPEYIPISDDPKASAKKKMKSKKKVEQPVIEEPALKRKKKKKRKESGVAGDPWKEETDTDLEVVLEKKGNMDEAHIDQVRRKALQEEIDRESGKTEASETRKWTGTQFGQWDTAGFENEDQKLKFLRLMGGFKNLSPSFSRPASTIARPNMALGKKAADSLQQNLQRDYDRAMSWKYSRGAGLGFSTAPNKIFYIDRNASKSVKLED
UniProt P52732: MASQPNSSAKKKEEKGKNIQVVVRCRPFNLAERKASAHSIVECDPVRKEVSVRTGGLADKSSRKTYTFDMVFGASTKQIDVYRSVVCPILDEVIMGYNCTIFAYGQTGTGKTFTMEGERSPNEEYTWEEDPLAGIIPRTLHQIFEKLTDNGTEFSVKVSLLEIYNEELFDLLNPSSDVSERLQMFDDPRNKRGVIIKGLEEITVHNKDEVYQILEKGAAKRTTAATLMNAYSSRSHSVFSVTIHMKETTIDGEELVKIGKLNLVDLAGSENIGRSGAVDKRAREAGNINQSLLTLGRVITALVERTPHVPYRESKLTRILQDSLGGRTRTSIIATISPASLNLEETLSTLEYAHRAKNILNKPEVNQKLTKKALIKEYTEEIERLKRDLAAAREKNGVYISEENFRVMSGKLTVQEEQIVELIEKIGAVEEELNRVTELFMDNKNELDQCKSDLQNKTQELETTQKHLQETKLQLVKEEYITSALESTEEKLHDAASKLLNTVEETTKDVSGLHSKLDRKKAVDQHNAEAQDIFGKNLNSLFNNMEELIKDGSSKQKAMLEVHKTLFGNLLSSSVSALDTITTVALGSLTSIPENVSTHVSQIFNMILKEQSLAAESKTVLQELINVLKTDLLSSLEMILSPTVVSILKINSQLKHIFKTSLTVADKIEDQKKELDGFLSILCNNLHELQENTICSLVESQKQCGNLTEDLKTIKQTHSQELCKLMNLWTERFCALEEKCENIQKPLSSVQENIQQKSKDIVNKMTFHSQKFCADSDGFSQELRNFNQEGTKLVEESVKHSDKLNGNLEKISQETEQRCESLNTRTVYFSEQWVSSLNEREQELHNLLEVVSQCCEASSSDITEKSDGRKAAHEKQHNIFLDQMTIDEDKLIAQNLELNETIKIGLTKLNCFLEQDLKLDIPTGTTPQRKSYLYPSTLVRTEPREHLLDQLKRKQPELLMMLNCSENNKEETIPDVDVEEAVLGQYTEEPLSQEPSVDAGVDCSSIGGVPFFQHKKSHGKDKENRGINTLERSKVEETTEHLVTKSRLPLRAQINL
UniProt Q96AT1: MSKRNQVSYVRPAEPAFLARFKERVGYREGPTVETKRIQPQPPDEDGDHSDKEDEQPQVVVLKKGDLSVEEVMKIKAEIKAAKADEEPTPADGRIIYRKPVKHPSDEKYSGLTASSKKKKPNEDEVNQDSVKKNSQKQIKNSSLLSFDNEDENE

The targets below were run with c1cn2cc(-c3ccc4cn[nH]c4c3)nc(Nc3ccc(N4CCOCC4)cc3)c2n1 [entospletinib] (assay: log2 fold change, soluble protein after heating vs DMSO (PISA); higher = thermal stabilisation; K562 lysate, 10 uM; active = over 0.2 and 3.5 SD of the protein, either way, in both replicates (recomputed)).
Summary of the method: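 Values give the log-two fold change in thermal stability against solvent controls, from duplicates. Crude K562 extract at 1 mg/mL protein, made by dounce homogenisation in PBS pH 7.4 with 1 mM MgCl2, was treated with 10 μM compound for 30 min. After 3 min heating across 48°C-58°C, aliquots were pooled, adjusted to 0.5% NP-40 at 4°C and centrifuged at 21,000xg for 90 min. The supernatant was measured by TMTpro 16plex LC-MS/MS with channel sums equalised.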

log2 fold change, inactive:
LARP4B (UniProt Q92615) -0.011
KIAA1522 isoform 2 (UniProt Q9P206) 0.019
KIF16B isoform 2 (UniProt Q96L93) -0.348
KTN1 (UniProt Q86UP2) -0.03
KIF15 (UniProt Q9NS87) -0.024
LANCL2 (UniProt Q9NS86) 0.008
KLHL7 (UniProt Q8IXQ5) -0.014
KLC2 (UniProt Q9H0B6) 0.034
KDM8 isoform 3 (UniProt Q8N371) 0.028
LARP1B, A0A3B3ISF0 -0.025
LAMB1 (UniProt P07942) -0.014
KIF23 isoform 2 (UniProt Q02241) 0.047
LAMTOR5 (UniProt O43504) -0.079
KDM4B (UniProt O94953) -0.078
KNSTRN (UniProt Q9Y448) 0.02
KEL (UniProt P23276) 0.015
KIF5B (UniProt P33176) 0.011
KIAA1191 (UniProt Q96A73) 0.037
KMT2E (UniProt Q8IZD2) -0.036
LARP4 isoform 4 (UniProt Q71RC2) 0.002
KLHDC4 (UniProt Q8TBB5) 0.009
KRAS (UniProt P01116) -0.021
L2HGDH (UniProt Q9H9P8) -0.02
KIF1C (UniProt O43896) 0.001
LAMP1 (UniProt P11279) -0.004
KDM5B isoform 2 (UniProt Q9UGL1) -0.037
KIF13A isoform 4 (UniProt Q9H1H9) -0.034
KHK isoform 2 (UniProt P50053) 0.033
KPTN (UniProt Q9Y664) -0.008
KPNA2 (UniProt P52292) 0.019
KLC4 isoform 3 (UniProt Q9NSK0) -0.006
KIF21A isoform 5 (UniProt Q7Z4S6) -0.058
KNOP1 (UniProt Q1ED39) -0.035
KIF11 (UniProt P52732) 0.001
KIDINS220 isoform 4 (UniProt Q9ULH0) -0.02
KRR1 (UniProt Q13601) 0.011
KRIT1 (UniProt O00522) 0.012
KRTCAP2 isoform 2 (UniProt Q8N6L1) 0.05
KIAA1143 (UniProt Q96AT1) -0.016

No new results follow: an excerpt of the list.
log2 fold change, inactive:
KDM5B isoform 2 (UniProt Q9UGL1) -0.037
KIF13A isoform 4 (UniProt Q9H1H9) -0.034
